Source: patent US20220332804A1
Positions count from the first letter of the chain named. No constants are given. Whether binding was seen depends on the method and setting. Some entries that bind do so weakly or less than the wild type.

Sequences of proteins named here, by UniProt entry; tags and fusion partners are left off. A change or cut given only in a name is not applied to a line headed by its entry. A line that says so, or that is headed by a name, gives the form on record, which may keep a tag or linker.
cynomolgus monkey C2 (G8F3W0, form named): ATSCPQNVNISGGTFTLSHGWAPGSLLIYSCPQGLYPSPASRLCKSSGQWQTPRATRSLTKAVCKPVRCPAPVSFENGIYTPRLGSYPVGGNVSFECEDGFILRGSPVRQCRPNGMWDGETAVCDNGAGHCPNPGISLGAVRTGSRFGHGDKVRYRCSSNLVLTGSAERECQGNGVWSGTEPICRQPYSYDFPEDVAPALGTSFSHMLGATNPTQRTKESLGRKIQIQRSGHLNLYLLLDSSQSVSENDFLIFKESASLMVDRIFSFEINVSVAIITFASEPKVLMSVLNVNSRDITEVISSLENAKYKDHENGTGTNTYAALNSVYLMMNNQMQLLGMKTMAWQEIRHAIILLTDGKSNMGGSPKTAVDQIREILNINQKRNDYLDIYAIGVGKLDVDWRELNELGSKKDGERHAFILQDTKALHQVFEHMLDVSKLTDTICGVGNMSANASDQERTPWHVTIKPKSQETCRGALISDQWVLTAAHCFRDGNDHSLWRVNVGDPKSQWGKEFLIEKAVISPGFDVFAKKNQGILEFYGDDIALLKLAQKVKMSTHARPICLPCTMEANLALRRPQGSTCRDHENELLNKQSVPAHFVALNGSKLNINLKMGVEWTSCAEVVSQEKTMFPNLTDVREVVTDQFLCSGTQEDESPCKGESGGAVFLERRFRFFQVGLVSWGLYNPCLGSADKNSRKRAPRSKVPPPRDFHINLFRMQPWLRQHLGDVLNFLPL

B1: RF16-203 (antibody, V domains shown)
VH: EVQLLESGGGLVQPGGSLRLSCAASGFTFSRYYMMWVRQAPGKGLEWVSSIGSSGGTTNYADSVKGRFTISRDNSKNTLYLQMNSLRAEDTATYYCAKGGMVLGVVNIWGQGTLVTVSS
VL: QSALTQPPSVSVSPGQTATITCSGDKLGEKYVSWYQQKPGQSPVVVIFQDIKRPSGIPERFSGSNSGNTATLTISGTQAMDEADYYCQTWGTGGIQVFGGGTKLTVLR
B2: RF16-203G (antibody, V domains shown)
VH: B1 VH with T93V
VL: B1 VL with Q1S, S2Y, A3E, T19S, V45L, F48Y, R108G
B3: RF16-242 (antibody, V domains shown)
VH: EVQLLQSGAEVKKPGESLKISCKGSGYSFTSYWIGWVRQMPGKGLEWMGIIYPGDSDTRYSPSFQGQVTISADKSISTAYLQWSSLKASDTAMYYCARRGHYGDYFDYWGQGTLVTVSS
VL: SYELTQPPSVSVSPGQTARITCSGDALPKKYAYWYHQKSGQAPVLVIYEDRRRPSEIPERFSGSSSGTMATLTITGAQVEDEGVYFCYSRDRAGNQRVFGGGTQLTVLG
B4: RF16-242G (antibody, V domains shown)
VH: B3 VH with L5V
VL: B3 VL with H36Q, E56G, T75S, G83A, V84D, F86Y
B5: RF16-214 (antibody, V domains shown)
VH: EVQLLESGGGLVQPGGSLRLSCAASGFTFSWYQMMWVRQAPGKGLEWVSRIYPSGGGTAYADSVKGRFTISRDNSKNTLYLQMNSLRAEDTAVYYCARDAGYGDNWGQGTLVTVSS
VL: QSALTQPPSVSVSPGQTASITCSGDKLGEKYASWYQQKAGQSPVMVIYQDRKRPSGIPERFSGSNSGNTATLTISGTQAMDEADYYCQAWDTRAVVFGGGTKLTVLG
B6: RF16-214G (antibody, V domains shown)
VH: B5 VH
VL: B5 VL with Q1S, S2Y, A3E, A39P, M45L
B7: RF16-191 (antibody, V domains shown)
VH: EVQLLESGGGLVQPGGSLRLSCAASGFTFSKYWMGWVRQATGKGLEWVSSIYSSGGWTYYADSVKGRFTISRDNSKNTLYLQMNSLRAEDTAVYYCARRPRSFSGSYYRAFDIWGQGTMVTVSS
VL: DIQMTQSPSSLSASVGDRVTITCRASQSITDYLNWYQQRPGKAPKLLIYAASSLQSGVPSRFSGSGSGTDFTLTISGLQPEDFATYYCQQSYSSSITFGQGTRLDLKR
B8: RF16-191G (antibody, V domains shown)
VH: B7 VH with T41P
VL: B7 VL with R39K, G77S

molecular target: cynomolgus monkey C2 (cynomolgus monkey) (UniProt G8F3W0); test: SPR, neutral pH

binding | Binder
binds | B1
binds | B2
binds | B3
binds | B4
binds | B5
binds | B6
binds | B7
binds | B8
